Source: PubChem BioAssay AID1259308 (NCATS, 2017)

Assay: 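Knock-downs that increase output of a recombinant reporter protein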 (primary screen)
Cells: human HEK293 embryonic kidney cells stably expressing firefly luciferase (HEK-CMV-Luc2-Hygro)
Reagent: single siRNA against human genes, 0.8 pmol siRNA per well
Time to read-out: 72 h
Detection: 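Luciferase light (ONE-Glo) measured on one replicate plate set and viability (CellTiter-Glo) on the other, scaled to a negative control siRNA, with robust z-scores and luciferase per cell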
Reading the numbers: total luciferase, z-score: higher = more reporter protein produced
Rule for the call: 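An siRNA counts as active if its total luciferase robust z-score exceeds 3; genes with two or more such siRNAs out of three were retested with fresh siRNAs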
Meaning of the calls: active = raised luciferase; inactive = no rise
The deposit covers about 59,000 reagents; below is a part drawn at random. About 1,510 of all reagents (2.6%) were called active. 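Calls use total luciferase alone and ignore viability, so some active siRNAs may act by altering cell number.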 Entries without a mark were called inactive. Reagents against one gene are numbered here. Further read-outs or replicates are left out here. No sequences are given here.

Against ZNF91 #1, the values are total luciferase, z-score 0.399. After knock-down of ZNF91 #2, the record shows total luciferase, z-score -1.83. ZNF91 #3 scored total luciferase, z-score -0.944. Knock-down of PHTF2 #1 came out at: total luciferase, z-score 0.155. Knock-down of PHTF2 #2 came out at: total luciferase, z-score 0.314. PHTF2 #3 scored total luciferase, z-score -0.379.

Silencing of TRIM11 #1 resulted in: total luciferase, z-score 0.585. TRIM11 #2 gave total luciferase, z-score 0.473. After knock-down of TRIM11 #3 the results were total luciferase, z-score -1.21. Silencing of H4C5 #1 gave: total luciferase, z-score -0.731. H4C5 #2 showed total luciferase, z-score -0.554. H4C5 #3 gave total luciferase, z-score 2.1.

METRNL #1 scored total luciferase, z-score 0.54. With knock-down of METRNL #2 the results were total luciferase, z-score 1.84. METRNL #3 showed total luciferase, z-score 0.712. Against DNAJC14 #1 the deposit lists total luciferase, z-score 1.6. Silencing of DNAJC14 #2 gave: total luciferase, z-score 0.198. After knock-down of DNAJC14 #3, the screen gave total luciferase, z-score -0.616.

Depletion of TRPV5 #1 resulted in: total luciferase, z-score 0.567. For TRPV5 #2 the deposit lists total luciferase, z-score -0.408. TRPV5 #3 gave total luciferase, z-score -1.84.
